{"sequences": {"note": "Amino acid sequences for entries named in this document (tags omitted).", "UniProt P18054, whole entry, looked up": "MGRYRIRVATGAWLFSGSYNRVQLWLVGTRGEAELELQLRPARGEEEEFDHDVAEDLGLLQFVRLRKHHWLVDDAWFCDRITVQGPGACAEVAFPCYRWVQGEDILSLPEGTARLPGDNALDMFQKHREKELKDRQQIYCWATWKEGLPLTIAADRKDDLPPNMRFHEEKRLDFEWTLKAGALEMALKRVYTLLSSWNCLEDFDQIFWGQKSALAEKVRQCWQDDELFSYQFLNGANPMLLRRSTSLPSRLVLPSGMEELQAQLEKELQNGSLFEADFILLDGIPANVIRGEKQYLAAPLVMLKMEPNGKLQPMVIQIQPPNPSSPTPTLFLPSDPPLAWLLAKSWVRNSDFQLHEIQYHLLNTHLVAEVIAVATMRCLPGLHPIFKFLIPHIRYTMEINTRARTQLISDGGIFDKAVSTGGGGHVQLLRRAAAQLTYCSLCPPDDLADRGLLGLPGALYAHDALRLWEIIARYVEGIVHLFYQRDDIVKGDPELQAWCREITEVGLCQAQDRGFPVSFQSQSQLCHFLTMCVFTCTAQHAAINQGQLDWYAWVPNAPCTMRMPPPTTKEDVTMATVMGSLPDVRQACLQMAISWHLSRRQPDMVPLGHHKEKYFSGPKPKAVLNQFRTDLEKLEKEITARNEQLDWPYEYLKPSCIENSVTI"}, "source": "PubChem BioAssay AID1671190", "about": "(National Center for Advancing Translational Sciences (NCATS), 2021)", "note": "The campaign covered roughly 580,000 compounds. About 6,100 (1.1%) were called active. Inconclusive results, whose numbers are uncertain, are shown with a selection of clear calls. Calls follow the shape of the dose curve; as a rule, active = well fitted inhibition curve with a large enough effect; inconclusive = small, poorly fitted or top-dose-only effect, or another doubt; inactive = no such curve, though single readings can be large or run the other way. Potencies beside an inconclusive call are fits to weak or partial responses and may not hold up. % is scaled to controls: 0 for no effect and ±100 for the full control effect; potency is read from the fitted curve at half-maximal effect.", "data": [{"biological_target": "Polyunsaturated fatty acid lipoxygenase ALOX12 (Homo sapiens) (UniProt P18054)", "assay": "Primary qHTS assay for inhibitors of human arachidonate 12S-lipoxygenase (ALOX12): Round 2", "settings": "purified 12hLO, xylenol orange hydroperoxide absorbance; activity change, negative = inhibition: at 108 µM (top of the series) unless noted", "summary_of_the_method": "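Hydroperoxide product was detected by ferrous iron/xylenol orange as the 573 to 405 nm absorbance ratio. Arachidonic acid at 40 uM (final) was turned over for 30 min at room temperature by 150 nM human 12hLO, pH 7.0 Hepes buffer, after 15 min compound preincubation.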", "values": [{"smiles": "COc1ccc(-n2c(SCC(=O)Nc3cccc(C#N)c3)nnc2-c2ccccc2OC)cc1", "Potency": "inconclusive: 50.1 µM [inhibitor, single point]"}, {"smiles": "S=c1[nH]nc(COc2ccc(Cl)cc2)n1C1CCCCC1", "Potency": "inconclusive: 10 µM [inhibitor, full curve, poor fit]"}, {"smiles": "CC(C)(C)NC(=S)NNC(=O)c1cccc(Br)c1", "Potency": "inconclusive: 89.1 µM [inhibitor, single point]"}, {"smiles": "CCCCn1cc2c(c1-c1cccc(C)c1)c(=O)n(C)c(=O)n2C", "Potency": "inconclusive: 112 µM [inhibitor, single point]"}, {"smiles": "Cc1ccc(/C(N)=N/OC(=O)c2cccc(F)c2)cc1", "activity change, negative = inhibition": "inactive: 1.04%"}, {"smiles": "c1ccc2[nH]c(NCCCc3cnc[nH]3)nc2c1", "Potency": "inconclusive: 6.31 µM [inhibitor, full curve, poor fit]"}, {"smiles": "CCCCN(C(=O)c1cccnc1OCC)c1c(N)n(CCC)c(=O)[nH]c1=O", "activity change, negative = inhibition": "inactive: 26.3%"}, {"smiles": "COc1cc(C(C)=O)ccc1OCc1cn(CC(=O)c2ccc(O)cc2)nn1", "Potency": "inconclusive: 35.5 µM [inhibitor, single point]"}, {"smiles": "O=C(Nc1ccc(O)c2c(=O)cc(-c3ccccc3Cl)oc12)c1cccc(Cl)c1", "Potency": "inconclusive: 0.501 µM [inhibitor, full curve, poor fit]"}, {"smiles": "Clc1ccccc1-c1cccc2nccn12", "Potency": "inconclusive: 126 µM [inhibitor, single point]"}, {"smiles": "O=C(C[C@@H]1CCNC[C@@H]1Cc1cc(CC2CCCCC2)on1)NCc1ccco1", "Potency": "inconclusive: 44.7 µM [inhibitor, partial curve]"}, {"smiles": "Nn1c(SC(C(=O)Nc2ccc(F)cc2)c2ccccc2)nnc1-c1ccco1", "note": "(stereo unspecified)", "Potency": "inconclusive: 44.7 µM [inhibitor, partial curve, poor fit]"}, {"smiles": "CC(=O)N1CCCN(c2ncc(S(C)(=O)=O)c(C3CCCNC3)n2)CC1", "note": "(stereo unspecified)", "Potency": "inconclusive: 15.8 µM [inhibitor, full curve]"}, {"smiles": "Cc1ccc(C(=O)CC(=O)c2cc(Cl)ccc2O)cc1", "Potency": "inconclusive: 7.08 µM [inhibitor, full curve]"}, {"smiles": "Cc1ccc(C)c(COC(=O)c2cc([N+](=O)[O-])ccc2N2CCOCC2)c1", "activity change, negative = inhibition": "inactive: -24.1%"}, {"smiles": "Cc1ccc(C)c(CN2C(=O)c3ccccc3S(=O)c3ccc(C(=O)N4CCN(c5ccccc5F)CC4)cc32)c1", "note": "(stereo unspecified)", "Potency": "inconclusive: 56.2 µM [inhibitor, partial curve, poor fit]"}, {"smiles": "C=C1C(=O)[C@@]23C(CC[C@@H]1[C@H]2O)[C@@]12CO[C@]3(O)[C@@H](O)[C@@H]1C(C)(C)CC[C@@H]2O", "note": "(stereo partly specified)", "Potency": "inconclusive: 8.63 µM [inhibitor, partial curve]"}, {"smiles": "CCOC(=O)c1ccc(NC(=S)NCC(O)c2ccccc2)cc1", "note": "(stereo unspecified)", "Potency": "inconclusive: 15.8 µM [inhibitor, partial curve, poor fit]"}, {"smiles": "O=C(COc1cccnc1[N+](=O)[O-])N1CCC(Cc2ccccc2)CC1", "Potency": "inconclusive: 100 µM [inhibitor, single point]"}, {"smiles": "COCCNC(=S)N1CCN(c2nc(-c3ccc(F)cc3)cs2)CC1", "activity change, negative = inhibition": "inactive: -1.54%"}, {"smiles": "Cc1cc(=O)[nH]c(N/N=C/c2ccccc2Cl)n1", "Potency": "inconclusive: 4.47 µM [inhibitor, full curve, poor fit]"}, {"smiles": "CCN(Cc1ccccc1)C(=O)Cn1c(C)ccc(NS(=O)(=O)c2ccccc2)c1=O", "Potency": "inconclusive: 5.62 µM [inhibitor, full curve, poor fit]"}, {"smiles": "O=C(Nc1nc2ccc(Cl)cc2s1)c1ccc(Br)o1", "activity change, negative = inhibition": "inactive: -2.22%"}, {"smiles": "C=CCn1c(CC)nc2ccccc21", "Potency": "inconclusive: 12.6 µM [inhibitor, partial curve, poor fit]"}, {"smiles": "Cc1ccc(N2CC(NC(=O)c3ccc(S(=O)(=O)N4CCCC4)cc3)CC2=O)cc1", "note": "(stereo unspecified)", "Potency": "inconclusive: 141 µM [inhibitor, partial curve, poor fit]"}, {"smiles": "Cc1cc(OCC(F)F)ccc1N", "Potency": "inconclusive: 3.98 µM [inhibitor, full curve, poor fit]"}, {"smiles": "Cc1c(CCC(=O)O)c(=O)oc2c(C)c3occ(-c4ccc(Br)cc4)c3cc12", "Potency": "inconclusive: 39.8 µM [inhibitor, partial curve, poor fit]"}, {"smiles": "CCOc1ccc(CC(=O)N2CCC[C@H]2c2nc(-c3ccccc3)no2)cc1", "activity change, negative = inhibition": "inactive: 34.7%"}, {"smiles": "CCOc1ncccc1CNC(=O)c1cc2cc(C)ccc2nc1C", "Potency": "inconclusive: 63.1 µM [inhibitor, single point]"}, {"smiles": "COc1ccc(C(=O)N2CCC(c3n[nH]c(=O)n3-c3ccc(C)cc3)CC2)cc1", "Potency": "inconclusive: 15.8 µM [inhibitor, full curve, poor fit]"}, {"smiles": "Cc1ccc(-c2nn(CC(=O)NCc3ccco3)c(=O)c3ccccc23)cc1", "Potency": "inconclusive: 141 µM [inhibitor, single point]"}, {"smiles": "Cc1[nH]c(=S)sc1Cc1cccc(C(F)(F)F)c1", "Potency": "active: 25.1 µM"}, {"smiles": "O=c1c2nccnc2[nH]c(=S)n1Cc1ccccc1Cl", "Potency": "inconclusive: 44.7 µM [inhibitor, partial curve, poor fit]"}, {"smiles": "Nc1c(N=Nc2ccccc2F)c(=O)[nH]n1-c1ccccc1", "activity change, negative = inhibition": "inactive: 180%"}, {"smiles": "Clc1ccc(SCCn2ccnc2)cc1", "Potency": "inconclusive: 0.447 µM [inhibitor, full curve, poor fit]"}, {"smiles": "C=CCNC(=O)c1ccccc1NC(=O)c1ccccc1SC", "Potency": "inconclusive: 56.2 µM [inhibitor, partial curve, poor fit]"}, {"smiles": "COc1ccc(C2(C(=O)N3CCC[C@H]3c3nc(-c4ccccc4Cl)no3)CC2)cc1", "activity change, negative = inhibition": "inactive: 18.1%"}, {"smiles": "CCOC(=O)c1cnn(-c2ccc(NS(=O)(=O)c3ccc(Cl)cc3)cc2)c1C(F)(F)F", "Potency": "inconclusive: 50.1 µM [inhibitor, partial curve, poor fit]"}, {"smiles": "CC(=O)Nc1cccc(C(=O)NC2CCCN(c3cc(-c4ccc(Cl)cc4)[nH]n3)C2)c1", "note": "(stereo unspecified)", "activity change, negative = inhibition": "inactive: 4.7%"}, {"smiles": "CCOC(=O)c1c(NC(=O)CSc2n[nH]c(-c3ccco3)n2)sc(C)c1C", "Potency": "inconclusive: 50.1 µM [inhibitor, partial curve, poor fit]"}, {"smiles": "O=[N+]([O-])c1ccccc1CNC1CCCCCC1", "Potency": "inconclusive: 31.6 µM [inhibitor, partial curve, poor fit]"}]}]}
